Reference: patent publication US20080108655A1, “Drug composition and method for treating malaria and malignancy” (priority 2005, published 2008)

How the values were obtained:
[1] = tested on: P. falciparum Dd2 (multidrug resistant)
Description: (§1) All in vitro studies were 72 hour growth inhibition assays, starting with 0.2% parasitemia, 2% hematocrit under standard culture conditions in 96 well microplates. Growth was quantified using the fluorescence-based assay developed in our lab (Smilkstein et al; Antimicrobial Agents and Chemotherapy 2004;48:1803-1806). EC50 determined by non-linear regression curve fitting (sigmoidal dose-response, variable slope equation) using GraphPad Prism software. Isobolograms and EC50,75 and 90 estimates computed using CalcuSyn software (Biosoft, T. C. Chou).
(§2) 2. […] In the following figures, fixed-ratio combinations of 2 drugs are made at the concentrations of each described in the figure legend (Fivelman, Adagu and Warhurst. Antimicrobial Agents and Chemotherapy 2004;48:4097-4102). Then, in quadruplicate, each of these combinations is diluted serially 2-fold, yielding one curve for each starting mixture. The data are expressed using the concentration of the antimalarial of interest on the X axis. […] In each starting combination, an increase of one drug is accompanied by a corresponding decrease in the other. As a result, overlapping curves indicate an additive relationship; a shift to the left, synergy; and a shift to the right, antagonism. • b. […]

[2] = tested on: CQ-resistant P. chabaudi; conditions: mice, single pilot trial
[3] = tested on: P. falciparum W2 (chloroquine-resistant); assay: 72 hour growth inhibition assay, fluorescence-based, strain W2; format: cell-based; conditions: W2, in vitro
Description: as §1, §2

[4] = human, in vivo; cited from earlier work

Cc1ccccc1C(OCCN(C)C)c1ccccc1 (racemic) [orphenadrine]
potency in chemosensitizing to chloroquine, compared with chlorpheniramine ([1]; Dd2, in vitro): approximately twice as potent as chlorpheniramine | intrinsic antimalarial activity of the drug alone ([1]; Dd2 compared with D6): far greater in multidrug resistant (e.g., Dd2) than in non-resistant (e.g., D6) parasites | activity in vivo against CQ-resistant P. chabaudi [2]: active in vivo | potency in chemosensitizing to chloroquine, compared with chlorpheniramine [3]: approximately twice as potent as chlorpheniramine | typical serum concentration values [4]: < 1 µM | typical serum concentrations in clinical use [4]: 500 nM-2 μM
